These results are taken from publication PMC8462815.

The assay addresses T1, GFP-tagged Arabidopsis SEIPIN1 (Arabidopsis thaliana) (UniProt Q9FFD9).
T1 sequence: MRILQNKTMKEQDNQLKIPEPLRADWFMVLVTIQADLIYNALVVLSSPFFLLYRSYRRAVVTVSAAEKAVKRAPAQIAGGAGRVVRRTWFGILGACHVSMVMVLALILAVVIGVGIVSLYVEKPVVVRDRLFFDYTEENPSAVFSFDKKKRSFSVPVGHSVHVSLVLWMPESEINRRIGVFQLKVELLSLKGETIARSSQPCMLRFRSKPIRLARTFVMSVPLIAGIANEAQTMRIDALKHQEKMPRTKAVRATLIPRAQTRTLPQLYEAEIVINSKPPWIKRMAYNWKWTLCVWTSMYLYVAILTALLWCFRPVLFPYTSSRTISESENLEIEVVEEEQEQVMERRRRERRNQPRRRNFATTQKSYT
Kind of assay: affinity purification with mass spectrometry; GFP-Trap agarose (anti-GFP VHH on agarose beads) on extracts of A. tumefaciens-infiltrated N. benthamiana leaves expressing GFP alone or GFP-SEIPIN1, with or without co-expressed Arabidopsis LEC2; co-purifying proteins identified by MS.

No constants are given. Whether binding was seen depends on the method and setting. Binding seen in cells or lysates may run through a third protein. Here binding means that the protein was enriched with, or labelled near, the bait; the list need not be complete. Tags and fused reporters may be left off the sequences shown.

For “endogenous N. benthamiana oleosin (oleosin isoform 5 [OLE5])”, the binding result was “binds”.

Turning to endogenous N. benthamiana LDIP, the binding entry was “binds”.
